The source of these data is the supplement of paper PMC3334620.

In all, about 33,000 sequences were measured (“E-score (-0.5 to 0.5)”: median about -0.016, highest 2% from about 0.3 on). This is one part of the list.

The target of the test is T1, Yer184c (UniProt P39961).
T1 sequence: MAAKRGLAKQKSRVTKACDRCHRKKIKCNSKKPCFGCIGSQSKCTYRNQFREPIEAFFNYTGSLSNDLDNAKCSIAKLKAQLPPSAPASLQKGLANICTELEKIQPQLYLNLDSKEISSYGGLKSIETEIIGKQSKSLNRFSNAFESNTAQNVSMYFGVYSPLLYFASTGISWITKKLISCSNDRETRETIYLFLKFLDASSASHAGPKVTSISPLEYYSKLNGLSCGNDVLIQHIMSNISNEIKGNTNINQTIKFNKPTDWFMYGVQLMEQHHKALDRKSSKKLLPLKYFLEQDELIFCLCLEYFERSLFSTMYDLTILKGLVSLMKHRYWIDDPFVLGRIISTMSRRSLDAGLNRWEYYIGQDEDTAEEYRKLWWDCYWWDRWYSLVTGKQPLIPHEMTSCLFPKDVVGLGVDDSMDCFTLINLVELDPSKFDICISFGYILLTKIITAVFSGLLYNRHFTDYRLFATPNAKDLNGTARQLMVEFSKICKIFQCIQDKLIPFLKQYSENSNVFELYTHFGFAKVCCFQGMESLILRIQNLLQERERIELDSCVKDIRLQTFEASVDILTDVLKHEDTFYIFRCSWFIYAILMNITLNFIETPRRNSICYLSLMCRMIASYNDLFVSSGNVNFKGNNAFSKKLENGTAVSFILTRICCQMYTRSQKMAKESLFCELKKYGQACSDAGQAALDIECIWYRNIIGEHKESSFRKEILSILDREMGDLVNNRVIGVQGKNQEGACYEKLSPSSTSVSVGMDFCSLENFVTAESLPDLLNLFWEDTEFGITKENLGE
Put plainly: PBM E-score (8-mer binding enrichment) (E-score (-0.5 to 0.5)); higher = stronger / more preferred TF binding. As to conditions: protein concentration: 100 nM; construct: GST-full length. The gist of the method: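 Detection of bound protein used fluorescent anti-GST, with scans normalised by masliner. The proteins were GST-tagged yeast transcription factors applied at about 100-200 nM to universal all-10-mer Agilent arrays made double-stranded by primer extension. Each ungapped eight-base word, pooled with its reverse complement, was scored with an E-score from the Universal PBM Analysis Suite.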
As for ACGAAACG, the “PBM E-score” value stood at 0.0839.

As for CACTCAAC, the “PBM E-score” value worked out at 0.0203.

With GGTGGATA, the “PBM E-score” value was 0.00341.

With TAGATAAA, the “PBM E-score” value was determined as 0.195.

As for GTATCGTA, the “PBM E-score” value was -0.0244.

Consider GCCTACGA, for which the “PBM E-score” value was -0.0383.

Take ACCACGCC: the “PBM E-score” value came to 0.0179.

With TCGACCGA, the “PBM E-score” value amounted to 0.233.

In the case of CGGCCCGA, the “PBM E-score” value came to 0.28.

As for CAACCCCC, the “PBM E-score” value is -0.294.

Turning to CGAATAAG, the “PBM E-score” value is -0.0727.

For CAACACGA, the “PBM E-score” value is 0.0672.

For CAAGTCCA, the “PBM E-score” value is -0.213.

In the case of AACGCAAG, the “PBM E-score” value is 0.0455.

Regarding CAATTGGA, the “PBM E-score” value was -0.0522.

As for ATGGTTTC, the “PBM E-score” value was found to be 0.0728.

Consider ACCGGGCG, for which the “PBM E-score” value came out at 0.0765.

Turning to ATGCTAGC, the “PBM E-score” value came out at 0.123.

Regarding AGTACTGA, the “PBM E-score” value is 0.14.

As to AATCAGTC, the “PBM E-score” value was determined as 0.0555.

As to CAGACCGC, the “PBM E-score” value was determined as 0.0654.

As to ACTATCAG, the “PBM E-score” value was -0.12.

CCAAAAAC: the “PBM E-score” value is 0.177.

Consider AGATCTCG, for which the “PBM E-score” value stood at 0.0488.

On to CACATTCA, for which the “PBM E-score” value is -0.143.

Consider AAGCAAGA, for which the “PBM E-score” value is -0.0309.

Take ACCATTGA: the “PBM E-score” value is -0.0656.

Regarding CTTATAGA, the “PBM E-score” value was found to be 0.0118.

With GACAATCC, the “PBM E-score” value stood at 0.16.

Consider TAAGTCAA, for which the “PBM E-score” value is -0.176.

As for GAGGTCCA, the “PBM E-score” value was -0.0521.

In the case of CAAACTGG, the “PBM E-score” value was -0.133.

ACGGGGAT: the “PBM E-score” value was found to be 0.0139.

In the case of GCAGTAGC, the “PBM E-score” value was -0.22.

As for AACGAATA, the “PBM E-score” value is -0.0323.

In the case of CACCCTCG, the “PBM E-score” value was -0.032.

In the case of AGGCAATA, the “PBM E-score” value was -0.168.

On to TTGGAAAA, for which the “PBM E-score” value came to 0.134.

Take CTTGGGTC: the “PBM E-score” value is -0.164.

Regarding AGCTGTTG, the “PBM E-score” value was determined as 0.0365.

For the sequence TCGAGTAA, the “PBM E-score” value turned out to be 0.121.

With AGGCGCCT, the “PBM E-score” value is -0.0385.

For the sequence ATGAGAAG, the “PBM E-score” value is -0.126.

ACGCGAGC: the “PBM E-score” value was found to be 0.0852.

Regarding AGGAGAAG, the “PBM E-score” value was -0.155.

On to AGCCATTC, for which the “PBM E-score” value is -0.0813.

CTTGTCAA: the “PBM E-score” value came out at 0.184.

Turning to AATAATAT, the “PBM E-score” value came out at 0.333.

Regarding AGTACGAC, the “PBM E-score” value is -0.0734.

Regarding CACGTGTA, the “PBM E-score” value was -0.149.

Turning to CCACATGG, the “PBM E-score” value was -0.195.

Consider GACATCTA, for which the “PBM E-score” value was found to be 0.191.

As for AAGTCTGA, the “PBM E-score” value is -0.303.

As to CGAGGCCG, the “PBM E-score” value was -0.0804.

Turning to CTAGGGAC, the “PBM E-score” value is -0.198.

In the case of CAGCCATA, the “PBM E-score” value was -0.165.

Regarding CACAGAAC, the “PBM E-score” value is -0.13.

For the sequence GTGTCTCA, the “PBM E-score” value was -0.0779.

AGCTTCGC: the “PBM E-score” value was -0.141.

As for TATTGTGA, the “PBM E-score” value was -0.01.

For CGTCCTAG, the “PBM E-score” value was -0.125.

In the case of AAAGACTA, the “PBM E-score” value is 0.0369.

For the sequence ATCTAATA, the “PBM E-score” value was 0.137.

Turning to CCCCATCA, the “PBM E-score” value was -0.217.

Consider CAGCTATC, for which the “PBM E-score” value was -0.132.

Regarding ACTAGACA, the “PBM E-score” value worked out at 0.112.

On to CGTAGATC, for which the “PBM E-score” value worked out at 0.0355.

Take ATCCCCAT: the “PBM E-score” value was -0.0983.

With ATGTATGC, the “PBM E-score” value was 0.0572.

Regarding CCGTACGC, the “PBM E-score” value is -0.131.

With CAAGGGAG, the “PBM E-score” value was -0.00665.

Take GCGGGAGC: the “PBM E-score” value was -0.093.

With AAGCCGGT, the “PBM E-score” value was found to be 0.258.

With CCCCCCGC, the “PBM E-score” value is -0.405.

Consider GGCAGGCC, for which the “PBM E-score” value was -0.00201.

On to GCTGTGCA, for which the “PBM E-score” value was -0.166.

Consider CAAAGGTG, for which the “PBM E-score” value is -0.203.

With GGCCAGCA, the “PBM E-score” value was -0.189.

Turning to CCAGGTTC, the “PBM E-score” value is -0.199.

In the case of AATCCTAT, the “PBM E-score” value stood at 0.18.

Take CCCAATCC: the “PBM E-score” value was -0.211.

Turning to CCATCAGC, the “PBM E-score” value was -0.0914.

With GGAGACAA, the “PBM E-score” value stood at 0.0634.

CTTTCCTC: the “PBM E-score” value was -0.0252.

With GCGACCCA, the “PBM E-score” value is -0.17.

For AGAGGATA, the “PBM E-score” value was -0.0702.

With ATGATCCG, the “PBM E-score” value was determined as 0.235.

AGTGGTAC: the “PBM E-score” value is -0.133.

Regarding CCTGCCAG, the “PBM E-score” value is -0.171.

Turning to ACGTTCCG, the “PBM E-score” value was 0.0307.

GTTCCGGA: the “PBM E-score” value amounted to 0.438.

Consider AAAACGAC, for which the “PBM E-score” value was 0.0469.

As for ATGCAGCG, the “PBM E-score” value is -0.0795.

With AGAATAGG, the “PBM E-score” value was found to be 0.0218.
